Results on three sequences are retold here after publication PMC9104387.

The subject of data set [1] is RpTOE1 (Robinia pseudoacacia). As to the kind of experiment: EMSA. To be noted: Chemiluminescent EMSA kit (Beyotime), 6% polyacrylamide gel; pH and temperature not stated; recombinant protein; protein details: His (pET-28a); label: 3'-biotin.
Data set [2] deals with RpTOE1 (Robinia pseudoacacia). Kind of data set: competition with a labelled probe. The note with it: competes with labeled Probe, dose-dependent (EMSA); Chemiluminescent EMSA kit (Beyotime), 6% polyacrylamide gel; pH and temperature not stated; recombinant protein; protein details: His (pET-28a).

For at least one entry, the source does not settle the construct or the ends of the probe. For part of these data: Negatives hold for the conditions tested.

In the case of “TTGGAGATTCCTCCATTGCAACCTAAAATCCTTTGGTGGACCAAT (double strand) [Probe (RpFT promoter, TBS-like)]”, in data set [1], the binding result was “binds”.

Consider “TTGGAGATTCCTCCATTGCAACCTAAAATCCTTTGGTGGACCAAT (double strand) [unlabeled Probe (cold competitor)]”, for which, in data set [2], the binding result is listed as “binds”.

On to “TTGGAGATTCCTCCATTGCGGGGGGGAATCCTTTGGTGGACCAAT (double strand) [mProbe (TBS-like to GGGGGGG)]”, for which the binding result in data set [1] is listed as “no binding”.
